Assay results as given in paper doi:10.1101/2025.05.09.653063 (bioRxiv, 2025).

T1: proteasome α subunit (PsmA), genome-encoded, non-tagged (Saccharolobus islandicus REY15A (endogenous in E233S)) (UniProt C3MQ43)
T1 sequence: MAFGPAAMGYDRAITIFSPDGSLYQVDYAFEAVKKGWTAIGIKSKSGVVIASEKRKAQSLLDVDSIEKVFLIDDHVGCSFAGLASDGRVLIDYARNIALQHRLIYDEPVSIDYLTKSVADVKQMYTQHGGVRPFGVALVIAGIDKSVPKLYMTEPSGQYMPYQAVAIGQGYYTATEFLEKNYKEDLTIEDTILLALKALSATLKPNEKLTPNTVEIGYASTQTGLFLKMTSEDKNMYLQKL

B1: His-tagged wild type PsmA (natural protein, Saccharolobus islandicus REY15A, UniProt C3MQ43 1-241, looked up)
chain: T1 sequence

Assays:
Experiment in all cases: affinity purification with mass spectrometry
[1] = target: His-tagged ePK2 (SiRe_2030) (Saccharolobus islandicus REY15A) (UniProt F0NC32)
[2] = target: T1, proteasome α subunit (PsmA), genome-encoded, non-tagged (Saccharolobus islandicus REY15A (endogenous in E233S))
[3] = target: His-tagged ePK2 (SiRe_2030) (Saccharolobus islandicus REY15A) (UniProt F0NC32); remark: listed apart in the source

binding [2] | further results | Molecule
– | binding [1]: binds | fructose-1,6-biphosphate aldolase/phosphatase (Fbp) (from UniProt F0NII8) (enzyme)
binds | – | potential 20S proteasome assembly factor SiRe_1163, endogenous (from UniProt F0NEV0)
binds | – | potential 20S proteasome assembly factor SiRe_1724, endogenous (from UniProt F0NIK1)
– | binding [3]: binds | B1

Where two headings read alike, the source gives them in different places. Results are given in words; binding and its absence hold for the method and conditions named. Binding seen in cells or lysates may run through a third protein. Here binding means that the protein was enriched with, or labelled near, the bait; the list need not be complete. For some of these results: Where a sequence is shown, tags or fusion partners need not be part of it.
